Changes are numbered by the printed parent chain. These are yes or no findings as the source states them, for the method shown. Some results given as binding are weak or reduced against the parent protein; the word gives no strength. Blank lines part the entries; values can stand above or below the binder they belong to.
Key:
VEGFR2 = VEGFR2 (UniProt P35968); experiment: phage display selection
HMGB1 = HMGB1 (UniProt P09429); experiment: phage ELISA

Chains of the proteins cited; added tags and fusions are not shown. Residues count along the entry.
UniProt P35968, residues 20-764: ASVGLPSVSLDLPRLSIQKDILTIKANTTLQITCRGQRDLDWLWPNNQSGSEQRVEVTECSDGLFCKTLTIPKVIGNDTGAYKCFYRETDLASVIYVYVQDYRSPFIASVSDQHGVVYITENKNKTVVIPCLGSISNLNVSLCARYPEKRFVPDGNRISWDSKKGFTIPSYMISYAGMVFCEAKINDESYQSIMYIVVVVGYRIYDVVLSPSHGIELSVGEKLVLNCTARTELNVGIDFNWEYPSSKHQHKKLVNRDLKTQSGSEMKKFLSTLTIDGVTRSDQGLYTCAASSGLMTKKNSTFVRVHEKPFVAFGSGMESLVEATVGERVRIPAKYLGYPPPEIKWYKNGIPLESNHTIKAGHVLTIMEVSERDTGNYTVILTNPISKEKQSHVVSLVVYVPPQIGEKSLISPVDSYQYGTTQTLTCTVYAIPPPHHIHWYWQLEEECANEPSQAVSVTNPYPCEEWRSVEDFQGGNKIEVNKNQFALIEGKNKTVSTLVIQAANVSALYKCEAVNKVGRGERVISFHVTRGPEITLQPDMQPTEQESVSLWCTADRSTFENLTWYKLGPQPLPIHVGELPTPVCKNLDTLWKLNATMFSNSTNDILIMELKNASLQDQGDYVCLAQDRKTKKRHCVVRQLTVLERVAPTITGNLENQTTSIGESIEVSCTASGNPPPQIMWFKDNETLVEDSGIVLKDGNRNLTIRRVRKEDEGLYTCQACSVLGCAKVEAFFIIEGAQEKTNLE
UniProt P09429: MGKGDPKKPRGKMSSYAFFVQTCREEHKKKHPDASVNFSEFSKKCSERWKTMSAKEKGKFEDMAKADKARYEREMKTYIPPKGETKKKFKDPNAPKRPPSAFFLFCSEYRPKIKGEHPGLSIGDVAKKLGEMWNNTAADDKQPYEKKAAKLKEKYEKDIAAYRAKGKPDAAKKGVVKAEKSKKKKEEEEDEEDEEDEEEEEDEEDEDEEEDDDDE

binding (VEGFR2): binds
B1: SEQ ID NO 326 (designed binder)
chain: NVSPPRRARVTDATETTITISWRTKTKTITGFQVDAVPANGQTPIQRTIERNAHGYTITGLQPGTDYKIYLYTLYGLGEASSPVVIDAST

binding (VEGFR2): binds
B2: SEQ ID NO 300 (designed binder)
chain: NVSPPRRARVTDATETTITIRWKAPIDNGGSTVPGFQVDAVPANGQTPIQRTINADTSTYTITGLQPGTDYKIYLYTLNDNARSSPVVIDAST

binding (VEGFR2): binds
B3: 1637102_VGR2F04 (designed binder)
chain: B2 chain with I26E, D27Y, N28T, S31A, T32E, P34L

binding (VEGFR2): binds
B4: SEQ ID NO 228 (designed binder)
chain: B2 chain with K23N, A24Q, I26A, D27Y, N28D, S31R, T32A, V33I, T57V

binding (VEGFR2): binds
B5: SEQ ID NO 319 (designed binder)
chain: B2 chain with K23G, A24Q, I26A, D27Y, N28D, T32E, T57I

binding (VEGFR2): binds
B6: SEQ ID NO 312 (designed binder)
chain: B2 chain with K23N, A24T, I26G, N28A, T57I

binding (VEGFR2): binds
B7: SEQ ID NO 316 (designed binder)
chain: B2 chain with K23G, I26E, N28D, S31G, T32E, T57V

binding (VEGFR2): binds
B8: SEQ ID NO 330 (designed binder)
chain: NVSPPRRARVTDATETTITIRWERSQGQFDGFQVDAVPANGQTPIQRTINADTNVYTITGLQPGTDYKIYLYTLTAFGAGDVTSSPVVIDAST

binding (VEGFR2): binds
B9: SEQ ID NO 301 (designed binder)
chain: NVSPPRRARVTDATETTITIRWEQPVHPNSLIPSFQVDAVPANGQTPIQRTINADVSTYTITGLQPGTDYKIYLYTLNDNARSSPVVIDAST

binding (VEGFR2): binds
B10: SEQ ID NO 225 (designed binder)
chain: B9 chain with R7L, E23A, Q24L, V26I, H27D, N29G, I32V, N53H, V56T

binding (VEGFR2): binds
B11: SEQ ID NO 315 (designed binder)
chain: B9 chain with E23Q, Q24L, P25G, H27G, N29G, S30G, L31T, S34G, V56I

binding (VEGFR2): binds
B12: SEQ ID NO 310 (designed binder)
chain: B9 chain with E23K, Q24L, V26S, N29S, L31V, I32V, P33L, S34G, D55T

binding (VEGFR2): binds
B13: SEQ ID NO 305 (designed binder)
chain: B9 chain with E23T, Q24V, V26E, H27E, P28R, N29D, S30G, L31V, S34G, V56I

binding (VEGFR2): binds
B14: 1637102_VGR2C10 (designed binder)
chain: B9 chain with E23K, Q24L, H27S, P28A, N29D, S30G, L31V, I32V, S34G, V56I

binding (VEGFR2): binds
B15: SEQ ID NO 317 (designed binder)
chain: B9 chain with Q24L, V26I, H27Q, P28R, N29S, S34G

binding (VEGFR2): binds
B16: SEQ ID NO 307 (designed binder)
chain: B9 chain with E23T, Q24V, P28G, N29S, L31V

binding (VEGFR2): binds
B17: SEQ ID NO 303 (designed binder)
chain: B9 chain with E23T, Q24V, V26E, H27G, P28G, N29D, L31I, I32V

binding (VEGFR2): binds
B18: SEQ ID NO 304 (designed binder)
chain: B9 chain with E23A, Q24P, P25G, V26E, H27E, P28R, N29G, L31V, I32V, V56T

binding (VEGFR2): binds
B19: SEQ ID NO 309 (designed binder)
chain: NVSPPRRARVTDATETTITIRWKVAGSQFTSFQVDAVPANGQTPIQRTINAATTTYTITGLQPGTDYKIYLYTLNDNARSSPVVIDAST

binding (VEGFR2): binds
B20: SEQ ID NO 328 (designed binder)
chain: B19 chain with S27G, Q28T, T30D, S81I

binding (VEGFR2): binds
B21: SEQ ID NO 324 (designed binder)
chain: B19 chain with K23T, A25S, Q28P, T30D, S31G, N50H, A52D, T55V

binding (VEGFR2): binds
B22: SEQ ID NO 327 (designed binder)
chain: B19 chain with K23R, Q28E, T30D, N50H, L74F

binding (VEGFR2): binds
B23: SEQ ID NO 322 (designed binder)
chain: B19 chain with K23E, V24R, A25S, G26Q, S27G, T30D, S31G, A52D, T54N, T55V

binding (HMGB1): binds
B24: R2E6 anti-HMGB1 (designed binder)
chain: B19 chain with K23G, G26Q, F29V, T30A, S31R, N50K, A51R, A52S, T53V, T54H

binding (VEGFR2): binds
B25: SEQ ID NO 325 (designed binder)
chain: B19 chain with K23T, A25S, G26A, Q28E, T30D, N50H, A52T

binding (VEGFR2): binds
B26: SEQ ID NO 321 (designed binder)
chain: B19 chain with K23E, G26E, Q28A, T30D

binding (VEGFR2): binds
B27: SEQ ID NO 230 (designed binder)
chain: NVSPPRSARVTDATETTITIRWGEPTHNGGTEIPSFQVDAVPANGQTPIKRTINADTHTYTITGLQPGTDYKIYLYTLNDNARSSPVVIDAST

binding (VEGFR2): binds
B28: SEQ ID NO 331 (designed binder)
chain: NVSPPRCARVTDATETTITIRWGVPEGKVVSFQVDAVPANGQTPIQRTIKPDVRSYTITGLQPGTDYKIYLYTLNNTGGSTYTELTVVIDAST

binding (VEGFR2): binds
B29: SEQ ID NO 306 (designed binder)
chain: NVSPPRRARVTDATETTITIRWQAPDDGDGVVPGFQVDAVPANGQTPIQRTINADTNTYTITGLQPGTDYKIYLYTLNDNARSSPVVIDAST

binding (VEGFR2): binds
B30: SEQ ID NO 318 (designed binder)
chain: B29 chain with A24Q, P25G, D26E, D27E, D29G, N57S

binding (VEGFR2): binds
B31: SEQ ID NO 308 (designed binder)
chain: NVSPPRRARVTDATETTITISWRTKTETITGFQVDAVPANGQTPIQRTIDTSANSYTITGLQPGTDYKIYLYTLNEYGDSNFTQLTGVIDAST

binding (VEGFR2): binds
B32: SEQ ID NO 313 (designed binder)
chain: NVSPPRRARVTDATETTITIRWRAARSQFGFQVDAVPANGQTPIQRTIHADASTYTITGLQPGTDYKIYLYTLNDNARSSPVVIDAST

binding (HMGB1): binds
B33: R2D4 anti-HMGB1 (designed binder)
chain: NVSPPRRARVTDATETTITISWGVAESEVTRFQVDAVPANGQTPIQRTIKRSKHAYTITGLQPGTDYKIYLYTLNDNARSSPVVIDAST

binding (HMGB1): binds
B34: R2B5 anti-HMGB1 (designed binder)
chain: B33 chain with S21R, G23T, E28K, V29I, T30A, A55S

binding (HMGB1): binds
B35: R2E5 anti-HMGB1 (designed binder)
chain: B33 chain with E26P, V29I, T30N

binding (HMGB1): binds
B36: R2F5 anti-HMGB1 (designed binder)
chain: B33 chain with S21R, A25S, S27G, E28Q, V29I, T30V

binding (HMGB1): binds
B37: R2G9 anti-HMGB1 (designed binder)
chain: B33 chain with S21R, A25S, T30I

binding (HMGB1): binds
B38: R2F4 anti-HMGB1 (designed binder)
chain: B33 chain with S21R, A25S, E26P, T30V, K53V, A55G

binding (HMGB1): binds
B39: P2F6 anti-HMGB1 (designed binder)
chain: NVSPPRRARVTDATETTITIRWTVPASPIARFQVDAVPANGQTPIQRTIKRTTRTYTITGLQPGTDYKIYLYTLNDNARSSPVVIDAST

binding (VEGFR2): binds
B40: SEQ ID NO 302 (designed binder)
chain: NVSPPRRARVTDATETTITIRWEVPNKGGSQLLSFQVDAVPANGQTPIQRTINATTNVYTITGLQPGTDYKIYLYTLNDNARSSPVVIDAST

binding (VEGFR2): binds
B41: 1637102_VGR2B05 (designed binder)
chain: B40 chain with E23K, V24Q, N26K, K27E, G28A, G29D, L32V, T55S

binding (VEGFR2): binds
B42: SEQ ID NO 311 (designed binder)
chain: B40 chain with E23K, V24Q, N26I, K27H, G28A, G29D, Q31I, T55S, V58I

binding (VEGFR2): binds
B43: SEQ ID NO 224 (designed binder)
chain: B40 chain with E23K, V24Q, N26K, K27E, G28A, G29E, L32V, T55S

binding (HMGB1): binds
B44: P2F3 anti-HMGB1 (designed binder)
chain: NVSPPRRARVTDATETTITIRWGVPHSFQVDAVPANGQTPIQRTIKRGVRSYTITGLQPGTDYKIYLYTLNDNARSSPVVIDAST

binding (VEGFR2): binds
B45: 1637102_VGR2D12 (designed binder)
chain: NVSPPRRARVTDATETTITIRWERSGGPVDGFQVDAVPANGQTPIQRTINADTNIYTITGLQPGTDYKIYLYTLNDNARSSPVVIDAST

— patent US20110021746A1 (published 2011)
